No constants are given. Whether binding was seen depends on the method and setting. In cells and extracts the contact can be indirect. Some entries that bind do so weakly or less than the wild type. For some assays here: Sequences can lack the tags named with a protein.
Assays:
[1] = target: T1, TRIB2, endogenous (human (endogenous in A549)) (UniProt Q92519); experiment: co-IP; GST-PKM2 deletion mutants induced by IPTG and incubated with lysates of A549 cells; Co-IP with TRIB2 antibodies (legend of Fig. 2K); only the binder purified
T1 sequence: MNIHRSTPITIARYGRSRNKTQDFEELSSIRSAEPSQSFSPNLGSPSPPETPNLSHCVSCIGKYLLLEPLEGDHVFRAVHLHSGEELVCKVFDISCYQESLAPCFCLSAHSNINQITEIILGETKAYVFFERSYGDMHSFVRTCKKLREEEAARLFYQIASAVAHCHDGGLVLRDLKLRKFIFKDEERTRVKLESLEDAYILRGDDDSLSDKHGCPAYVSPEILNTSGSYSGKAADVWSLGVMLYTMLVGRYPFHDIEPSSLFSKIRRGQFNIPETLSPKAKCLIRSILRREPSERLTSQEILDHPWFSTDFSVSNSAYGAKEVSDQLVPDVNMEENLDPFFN

Sequences of proteins named here, by UniProt entry; tags and fusion partners are left off. A change or cut given only in a name is not applied to a line headed by its entry.
UniProt P14618: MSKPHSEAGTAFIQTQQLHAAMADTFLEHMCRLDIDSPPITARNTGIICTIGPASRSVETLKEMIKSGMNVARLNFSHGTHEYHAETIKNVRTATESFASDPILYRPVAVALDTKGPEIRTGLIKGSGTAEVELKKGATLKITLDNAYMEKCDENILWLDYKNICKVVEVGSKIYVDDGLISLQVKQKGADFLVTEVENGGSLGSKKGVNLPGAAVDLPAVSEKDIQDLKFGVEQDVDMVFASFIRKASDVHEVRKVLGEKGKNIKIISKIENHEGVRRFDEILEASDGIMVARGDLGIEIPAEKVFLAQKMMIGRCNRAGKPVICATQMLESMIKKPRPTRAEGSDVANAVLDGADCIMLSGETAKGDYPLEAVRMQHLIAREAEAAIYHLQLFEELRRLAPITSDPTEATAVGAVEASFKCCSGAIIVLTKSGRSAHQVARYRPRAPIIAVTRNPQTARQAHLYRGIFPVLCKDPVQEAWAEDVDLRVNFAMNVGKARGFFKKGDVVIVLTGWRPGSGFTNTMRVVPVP

GST-TRIB2-A (1-308) = target: T2, GST-TRIB2-A (1-308) (UniProt Q92519); experiment: pull-down; GST-fusion protein from E. coli bound to GST beads, incubated with cell lysates (A549, H1299 or other cells) for 4 h at 4 °C; adsorbed proteins by immunoblotting; the results call it Co-IP with anti-GST antibodies; only the target purified
T2 sequence: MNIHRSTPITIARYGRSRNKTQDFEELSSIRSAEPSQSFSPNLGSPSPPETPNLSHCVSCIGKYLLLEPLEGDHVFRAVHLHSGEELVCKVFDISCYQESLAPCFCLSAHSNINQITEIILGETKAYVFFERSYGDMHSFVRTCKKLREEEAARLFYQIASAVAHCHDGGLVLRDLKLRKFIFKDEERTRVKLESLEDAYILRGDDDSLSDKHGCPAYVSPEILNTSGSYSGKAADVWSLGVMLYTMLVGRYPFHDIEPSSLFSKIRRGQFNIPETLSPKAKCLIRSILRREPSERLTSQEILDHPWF

GST-TRIB2-D (308–343) = target: T3, GST-TRIB2-D (308–343) (UniProt Q92519); experiment: as above
T3 sequence: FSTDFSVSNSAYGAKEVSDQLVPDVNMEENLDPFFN

GST-TRIB2-Full = target: T4, GST-TRIB2-Full (UniProt Q92519); experiment: as above
T4 sequence: T1 sequence

[2] = target: T1, TRIB2, endogenous (human (endogenous in A549)); experiment: co-IP; lysates of A549 cells (endogenous proteins, or GFP-TRIB2-overexpressed cells) incubated with primary antibodies or control IgG overnight at 4 °C, protein G/A beads 2 h at 4 °C; immunoblotting

Substance	binding [1]	binding (GST-TRIB2-A (1-308))	binding (GST-TRIB2-D (308–343))	binding (GST-TRIB2-Full)	binding [2]
GST-PKM2 (241–408) (from UniProt P14618 241-408) (domain or fragment)	binds				
PKM2 (M2 isoform of pyruvate kinase), endogenous (from UniProt P14618 1-531)		binds	binds	binds	binds

— article PMC9256704
